One molecule from paper PMC12677614 can be followed below.

Sequences of proteins named here, by UniProt entry; tags and fusion partners are left off.
UniProt Q96CV9: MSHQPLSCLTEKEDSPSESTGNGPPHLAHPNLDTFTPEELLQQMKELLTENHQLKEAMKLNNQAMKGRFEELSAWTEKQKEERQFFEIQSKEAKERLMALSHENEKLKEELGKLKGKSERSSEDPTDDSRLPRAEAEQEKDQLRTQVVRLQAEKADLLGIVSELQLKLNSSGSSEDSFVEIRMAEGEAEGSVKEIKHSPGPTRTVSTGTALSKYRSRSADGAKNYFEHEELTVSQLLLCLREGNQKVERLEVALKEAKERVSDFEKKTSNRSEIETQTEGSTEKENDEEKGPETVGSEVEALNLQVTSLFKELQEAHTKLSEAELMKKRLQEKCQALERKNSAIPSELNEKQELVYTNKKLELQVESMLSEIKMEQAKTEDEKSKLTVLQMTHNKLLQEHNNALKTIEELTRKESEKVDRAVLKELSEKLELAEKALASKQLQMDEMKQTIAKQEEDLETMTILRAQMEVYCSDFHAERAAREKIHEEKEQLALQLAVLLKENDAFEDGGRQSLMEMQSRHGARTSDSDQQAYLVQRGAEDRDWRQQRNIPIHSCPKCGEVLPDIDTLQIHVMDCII

The assay has as its target OPTN in glioblastoma cells (human (endogenous in LN-229)) (UniProt Q96CV9). Put plainly: co-IP; Co-IP targeting OPTN, TRIM16 and MID1 in the LN-229 cell line, Western blot.

No constants are given. Whether binding was seen depends on the method and setting. Binding seen in cells or lysates may run through a third protein. Some binding calls cover weakened binding; strength is not graded here.

B1: MID1 in cells (protein, UniProt O15344 1-667)
chain: METLESELTCPICLELFEDPLLLPCAHSLCFNCAHRILVSHCATNESVESITAFQCPTCRHVITLSQRGLDGLKRNVTLQNIIDRFQKASVSGPNSPSETRRERAFDANTMTSAEKVLCQFCDQDPAQDAVKTCVTCEVSYCDECLKATHPNKKPFTGHRLIEPIPDSHIRGLMCLEHEDEKVNMYCVTDDQLICALCKLVGRHRDHQVAALSERYDKLKQNLESNLTNLIKRNTELETLLAKLIQTCQHVEVNASRQEAKLTEECDLLIEIIQQRRQIIGTKIKEGKVMRLRKLAQQIANCKQCIERSASLISQAEHSLKENDHARFLQTAKNITERVSMATASSQVLIPEINLNDTFDTFALDFSREKKLLECLDYLTAPNPPTIREELCTASYDTITVHWTSDDEFSVVSYELQYTIFTGQANVVSLCNSADSWMIVPNIKQNHYTVHGLQSGTKYIFMVKAINQAGSRSSEPGKLKTNSQPFKLDPKSAHRKLKVSHDNLTVERDESSSKKSHTPERFTSQGSYGVAGNVFIDSGRHYWEVVISGSTWYAIGLAYKSAPKHEWIGKNSASWALCRCNNNWVVRHNSKEIPIEPAPHLRRVGILLDYDNGSIAFYDALNSIHLYTFDVAFAQPVCPTFTVWNKCLTIITGLPIPDHLDCTEQLP
On to B1, for which the binding result is on record as “binds”.
